From PubChem BioAssay AID248 (DTP/NCI, 2004)
The list does not hold the whole screen: it gathers some chemical classes. Other doses and runs of a compound may be missing. T/C gives the treated animals as a percentage of the vehicle group. Some entries give survivors of the animals treated and no T/C: the source files T/C as zero there, which appears to mark a toxic dose or a test without result, not a measured value. Some survivor counts are full or nearly so, which does not show that the dose was tolerated: the source hardly ever lists a survival T/C far under the control, and the zero likely stands for such cases as well. Survivors were counted at the toxicity check, usually on the fifth day, unless a day is given; later deaths do not show. Schedule codes are those of the source, read here as Q, the interval in days (D) or hours (H), X, the number of doses. Some schedules carry Z or #; the key to these is not given. Some entries hold several experiments; the values are given in rising order. For survival time, this PubChem deposit counts one and a half times the control or more as active, and values a quarter to a half above the control carry no call in these data; other NCI protocols may use other cut-offs. Marks such as (2×) count equal records among those shown. Some T/C values are followed by the survivors on the day toxicity was checked, most often the fifth; without a count or a note in brackets, all were alive then.

System: L1210 leukemia ip in BDF1 mice, survival T/C
Assay: NCI In Vivo Anticancer Drug Screen. Data for tumor model L1210 Leukemia (intraperitoneal) in B6D2F1 (BDF1) mice
Settings: vehicle: saline, higher T/C = longer survival
[1] = T/C endpoint: mean survival time, dose: 18.0 mg/kg/injection, schedule: Q01DX001 (ip)
[2] = T/C endpoint: mean survival time, dose: 32.0 mg/kg/injection, schedule: Q01DX009 (ip)

CN(N=O)C(=N)N[N+](=O)[O-]
T/C (T/C endpoint: mean survival time, dose: 0.16 mg/kg/injection, schedule: Q#A X Z (ip)): 105 % of control
T/C (T/C endpoint: mean survival time, dose: 0.31 mg/kg/injection, schedule: Q#A X Z (ip)): 110 % of control
T/C (T/C endpoint: mean survival time, dose: 0.62 mg/kg/injection, schedule: Q#A X Z (ip)): 111 % of control
T/C (T/C endpoint: mean survival time, dose: 1.25 mg/kg/injection, schedule: Q#A X Z (ip)): 108 % of control
T/C (T/C endpoint: mean survival time, dose: 1.9 mg/kg/injection, schedule: Q03DX006 (ip)): 106 % of control
T/C (T/C endpoint: mean survival time, dose: 2.5 mg/kg/injection, schedule: Q#A X Z (ip)): 131 % of control
T/C (T/C endpoint: mean survival time, dose: 3.8 mg/kg/injection, schedule: Q03DX006 (ip)): 105 % of control
T/C (T/C endpoint: mean survival time, dose: 4.5 mg/kg/injection, schedule: Q01DX001 (ip)): 105 and 106 % of control
T/C (T/C endpoint: mean survival time, dose: 5.0 mg/kg/injection, schedule: Q01DX006 (iv)): 114 % of control
T/C (T/C endpoint: mean survival time, dose: 5.0 mg/kg/injection, schedule: Q01DX Z (im)): 108 % of control
T/C (T/C endpoint: mean survival time, dose: 5.0 mg/kg/injection, schedule: Q01DX Z (ip)): 138 % of control
T/C (T/C endpoint: mean survival time, dose: 5.0 mg/kg/injection, schedule: Q01DX Z (oral)): 105 % of control
T/C (T/C endpoint: mean survival time, dose: 5.0 mg/kg/injection, schedule: Q01DX Z (sc)): 114 % of control
T/C (T/C endpoint: mean survival time, dose: 5.0 mg/kg/injection, schedule: Q#A X Z (ip)): 138 % of control
T/C (T/C endpoint: mean survival time, dose: 7.5 mg/kg/injection, schedule: Q03DX006 (ip)): 117 % of control
T/C (T/C endpoint: mean survival time, dose: 8.0 mg/kg/injection, schedule: Q01DX009 (ip)): 126 and 135 % of control
T/C (T/C endpoint: mean survival time, dose: 9.0 mg/kg/injection, schedule: Q01DX001 (ip)): 101 and 119 % of control
T/C (T/C endpoint: mean survival time, dose: 10.0 mg/kg/injection, schedule: Q01DX006 (iv)): 111 % of control
T/C (T/C endpoint: mean survival time, dose: 10.0 mg/kg/injection, schedule: Q01DX Z (im)): 114 % of control
T/C (T/C endpoint: mean survival time, dose: 10.0 mg/kg/injection, schedule: Q01DX Z (ip)): 147 % of control
T/C (T/C endpoint: mean survival time, dose: 10.0 mg/kg/injection, schedule: Q01DX Z (oral)): 103 % of control
T/C (T/C endpoint: mean survival time, dose: 10.0 mg/kg/injection, schedule: Q01DX Z (sc)): 115 % of control
T/C (T/C endpoint: mean survival time, dose: 10.0 mg/kg/injection, schedule: Q#A X Z (ip)): 158 % of control
T/C (T/C endpoint: mean survival time, dose: 15.0 mg/kg/injection, schedule: Q03DX006 (ip)): 127 % of control
T/C (T/C endpoint: mean survival time, dose: 16.0 mg/kg/injection, schedule: Q01DX009 (ip)): 130 and 148 % of control
T/C [1]: 103 % of control
survivor count [1]: 3 of 6
T/C (T/C endpoint: mean survival time, dose: 20.0 mg/kg/injection, schedule: Q01DX006 (iv)): 108 % of control
T/C (T/C endpoint: mean survival time, dose: 20.0 mg/kg/injection, schedule: Q01DX Z (im)): 127 % of control
T/C (T/C endpoint: mean survival time, dose: 20.0 mg/kg/injection, schedule: Q01DX Z (ip)): 150 % of control
T/C (T/C endpoint: mean survival time, dose: 20.0 mg/kg/injection, schedule: Q01DX Z (oral)): 123 % of control
T/C (T/C endpoint: mean survival time, dose: 20.0 mg/kg/injection, schedule: Q01DX Z (sc)): 123 % of control
T/C (T/C endpoint: mean survival time, dose: 20.0 mg/kg/injection, schedule: Q#A X Z (ip)): 109 % of control
T/C (T/C endpoint: mean survival time, dose: 30.0 mg/kg/injection, schedule: Q03DX006 (ip)): 151 % of control
T/C [2]: 103 % of control
survivor count [2]: 6 of 6
T/C (T/C endpoint: mean survival time, dose: 35.0 mg/kg/injection, schedule: Q01DX001 (ip)): 125 and 127 % of control
T/C (T/C endpoint: mean survival time, dose: 35.0 mg/kg/injection, schedule: Q07DX003 (ip)): 113 % of control
T/C (T/C endpoint: mean survival time, dose: 40.0 mg/kg/injection, schedule: Q01DX006 (iv)): 109 % of control
T/C (T/C endpoint: mean survival time, dose: 40.0 mg/kg/injection, schedule: Q01DX Z (im)): 108 % of control
T/C (T/C endpoint: mean survival time, dose: 40.0 mg/kg/injection, schedule: Q01DX Z (ip)): 105 % of control
T/C (T/C endpoint: mean survival time, dose: 40.0 mg/kg/injection, schedule: Q01DX Z (oral)): 108 % of control
T/C (T/C endpoint: mean survival time, dose: 40.0 mg/kg/injection, schedule: Q01DX Z (sc)): 121 % of control
T/C (T/C endpoint: mean survival time, dose: 60.0 mg/kg/injection, schedule: Q03DX006 (ip)): 140 % of control
survivor count (T/C endpoint: mean survival time, dose: 64.0 mg/kg/injection, schedule: Q01DX009 (ip)): 3 of 6 and 6 of 6
T/C (T/C endpoint: mean survival time, dose: 70.0 mg/kg/injection, schedule: Q01DX001 (ip)): 115 % of control (2×)
T/C (T/C endpoint: mean survival time, dose: 70.0 mg/kg/injection, schedule: Q07DX003 (ip)): 134 % of control
T/C (T/C endpoint: mean survival time, dose: 80.0 mg/kg/injection, schedule: Q01DX006 (iv)): 108 % of control [4 of 6 alive]
survivor count (T/C endpoint: mean survival time, dose: 80.0 mg/kg/injection, schedule: Q01DX Z (oral)): 6 of 6
T/C (T/C endpoint: mean survival time, dose: 80.0 mg/kg/injection, schedule: Q01DX Z (sc)): 110 % of control
T/C (T/C endpoint: mean survival time, dose: 120.0 mg/kg/injection, schedule: Q03DX006 (ip)): 103 % of control
T/C (T/C endpoint: mean survival time, dose: 140.0 mg/kg/injection, schedule: Q01DX001 (ip)): 107 and 114 % of control [5 of 6 alive]
T/C (T/C endpoint: mean survival time, dose: 140.0 mg/kg/injection, schedule: Q07DX003 (ip)): 101 % of control
T/C (T/C endpoint: mean survival time, dose: 160.0 mg/kg/injection, schedule: Q01DX006 (iv)): 110 % of control [5 of 6 alive]
survivor count (T/C endpoint: mean survival time, dose: 160.0 mg/kg/injection, schedule: Q01DX Z (oral)): 6 of 6
T/C (T/C endpoint: mean survival time, dose: 160.0 mg/kg/injection, schedule: Q01DX Z (sc)): 103 % of control
T/C (T/C endpoint: mean survival time, dose: 280.0 mg/kg/injection, schedule: Q01DX001 (ip)): 89 and 113 % of control
survivor count (T/C endpoint: mean survival time, dose: 280.0 mg/kg/injection, schedule: Q07DX003 (ip)): 6 of 6
T/C (T/C endpoint: mean survival time, dose: 320.0 mg/kg/injection, schedule: Q01DX Z (sc)): 90 % of control [4 of 6 alive]
survivor count (T/C endpoint: mean survival time, dose: 640.0 mg/kg/injection, schedule: Q01DX Z (sc)): 0 of 6
survivor count (T/C endpoint: mean survival time, dose: 1280.0 mg/kg/injection, schedule: Q01DX Z (sc)): 0 of 6
T/C (T/C endpoint: median survival time, dose: 2.5 mg/kg/injection, schedule: Q01DX009 (ip)): 100 % of control
T/C (T/C endpoint: median survival time, dose: 5.0 mg/kg/injection, schedule: Q01DX009 (ip)): 120 % of control
T/C (T/C endpoint: median survival time, dose: 10.0 mg/kg/injection, schedule: Q01DX009 (ip)): 120 % of control
T/C (T/C endpoint: median survival time, dose: 20.0 mg/kg/injection, schedule: Q01DX009 (ip)): 120 % of control [7 of 8 alive]
survivor count (T/C endpoint: median survival time, dose: 40.0 mg/kg/injection, schedule: Q01DX009 (ip)): 8 of 8
survivor count (T/C endpoint: median survival time, dose: 80.0 mg/kg/injection, schedule: Q01DX009 (ip)): 8 of 8
